Data: patent US4347382A, “3^H Labeled compounds” (Burroughs Wellcome Co., priority 1980, dated 1982)

Each compound was assayed on anti-compound 2 sera, anti-compound 3 sera (assay: RIA of bupropion using 125I-labeled bupropion competitors with anti-compound 2 or anti-compound 3 sera). Conditions: with either anti-compound 2 or anti-compound 3 sera; ethanol precipitation.
Assay type: binding

| SMILES | sensitivity of RIA relative to the compound 10 (3H bupropion) assay system |
| --- | --- |
| CC(NC(C)(C)C)C(=O)c1ccc(O)c([125I])c1 (stereo not drawn) [Compound 9, ^125 I-α-t-Butylamino-3-iodo-4-hydroxypropiophenone] | approximately ten times more sensitive |
| CC(NC(C)(C)C)C(=O)c1ccc(CCCOC(=O)CCC(=O)NCCc2ccc(O)c([125I])c2)c(Cl)c1 (stereo not drawn) [Compound 8, α-t-Butylamino-3-chloro-4-γ-hydroxypropylpropiophenone-hemisuccinate-^125 I-tyramine amide] | approximately equal |
| CC(NC(C)(C)C)C(=O)c1ccc(OCC(=O)NCCc2ccc(O)c([125I])c2)c(Cl)c1 (stereo not drawn) [Compound 7, α-t-Butylamino-3-chloro-4-carbomethoxypropiophenone-^125 I-tyramine amide] | approximately equal |
